No constants are given. Whether binding was seen depends on the method and setting. For some of these results: A result given as binding can be weak or reduced; the word gives no strength. For some of these results: Tags and fused reporters may be left off the sequences shown. For some of these results: In cells and extracts the contact can be indirect.
Legend:
[1] = target: LmSepF (L. monocytogenes) (UniProt B8DBQ3); experiment: two-hybrid; BACTH (L. monocytogenes proteins) in E. coli BTH101; LB agar with X-Gal and IPTG, photographs after 24 and 48 h at 30 °C
[2] = target: T1, SpMreC-L-F3 (S. pneumoniae D39) (UniProt Q8DMY2); experiment: co-IP; S. pneumoniae cells cross-linked with 0.1% paraformaldehyde, lysates on anti-FLAG magnetic beads, elution with 3X FLAG peptide, blots with anti-PBP2x or anti-GpsB serum
T1 sequence: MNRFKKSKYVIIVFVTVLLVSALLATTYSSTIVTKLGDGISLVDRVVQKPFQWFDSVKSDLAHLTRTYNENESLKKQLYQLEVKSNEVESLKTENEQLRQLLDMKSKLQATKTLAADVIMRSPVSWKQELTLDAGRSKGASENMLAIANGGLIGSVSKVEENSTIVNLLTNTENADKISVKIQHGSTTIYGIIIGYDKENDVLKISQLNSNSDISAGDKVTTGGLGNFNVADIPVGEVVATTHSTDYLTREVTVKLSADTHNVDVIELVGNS

The chains behind the UniProt entries cited, without tags or fusion partners. Where a name states a change or a piece, a line headed by the entry shows the natural chain unless it says otherwise.
UniProt B8DBQ3: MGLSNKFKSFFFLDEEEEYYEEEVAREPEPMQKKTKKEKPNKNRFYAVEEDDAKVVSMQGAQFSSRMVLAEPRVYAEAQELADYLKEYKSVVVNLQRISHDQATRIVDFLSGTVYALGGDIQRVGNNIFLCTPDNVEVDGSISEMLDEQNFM
UniProt Q8Y614: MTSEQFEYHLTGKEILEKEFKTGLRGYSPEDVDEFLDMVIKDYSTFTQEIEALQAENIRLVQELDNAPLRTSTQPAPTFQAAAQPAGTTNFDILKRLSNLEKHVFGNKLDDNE
UniProt A0A0H2ZMF9: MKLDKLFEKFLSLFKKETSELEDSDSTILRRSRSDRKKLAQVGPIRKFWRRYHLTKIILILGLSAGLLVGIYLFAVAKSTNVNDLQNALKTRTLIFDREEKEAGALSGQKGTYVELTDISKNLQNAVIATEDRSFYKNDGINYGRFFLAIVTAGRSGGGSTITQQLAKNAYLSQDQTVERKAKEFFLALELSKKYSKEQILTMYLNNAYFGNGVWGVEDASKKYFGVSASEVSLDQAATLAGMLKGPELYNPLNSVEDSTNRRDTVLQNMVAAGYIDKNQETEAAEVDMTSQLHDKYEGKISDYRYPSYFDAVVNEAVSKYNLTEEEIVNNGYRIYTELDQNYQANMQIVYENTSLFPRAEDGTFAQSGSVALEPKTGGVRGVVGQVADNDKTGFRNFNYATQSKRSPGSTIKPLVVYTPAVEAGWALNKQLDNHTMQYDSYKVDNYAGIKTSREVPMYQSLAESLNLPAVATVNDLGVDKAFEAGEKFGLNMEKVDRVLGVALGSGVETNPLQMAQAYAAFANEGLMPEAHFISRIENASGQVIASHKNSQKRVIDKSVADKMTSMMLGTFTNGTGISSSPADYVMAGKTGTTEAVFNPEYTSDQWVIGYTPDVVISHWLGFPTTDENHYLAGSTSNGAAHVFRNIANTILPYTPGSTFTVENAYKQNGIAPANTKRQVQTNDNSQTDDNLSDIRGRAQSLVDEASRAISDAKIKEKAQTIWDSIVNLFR

[3] = target: T2, SpMreC (BACTH fusion) (S. pneumoniae D39) (UniProt Q8DMY2); experiment: two-hybrid; BACTH, S. pneumoniae proteins fused to T18 and T25 in E. coli BTH101; LB agar with X-Gal, photographed after 36 or 40 h at 30 °C
T2 sequence: T1 sequence

[4] = target: SpGpsB (BACTH fusion) (S. pneumoniae D39); experiment: as above
[5] = target: SpPBP2x-F3 (S. pneumoniae D39); experiment: co-IP; S. pneumoniae cells cross-linked with 0.1% paraformaldehyde, lysates on anti-FLAG magnetic beads, elution with 3X FLAG peptide, blots with anti-PBP2x or anti-GpsB serum
[6] = target: SpStkP-F2 (S. pneumoniae D39); experiment: as above
[7] = target: SpEzrA (BACTH fusion) (S. pneumoniae); experiment: two-hybrid; BACTH (S. pneumoniae proteins) in E. coli BTH101; LB agar with X-Gal, 30 °C, photographed after 24 and 40 h
[8] = target: SpPBP2b (BACTH fusion) (S. pneumoniae D39); experiment: as above
[9] = target: SpStkP (BACTH fusion) (S. pneumoniae); experiment: as above
[10] = target: BsRodZ (BACTH fusion) (B. subtilis); experiment: two-hybrid; BACTH (B. subtilis proteins); co-transformants grown on nutrient agar plates

In the case of “LmGpsB (BACTH fusion) (from UniProt Q8Y614 1-113)”, the binding [1] is reported as “binds”.

SpPBP2x (native, in S. pneumoniae) was tested, and the binding [2] was “binds”.

“SpPBP2a (BACTH fusion) (from UniProt A0A0H2ZMF9 1-731)” was tested, and the binding [3] was “binds”.

B1: SpMreC (BACTH fusion) (protein, UniProt Q8DMY2 1-272)
chain: T1 sequence
In the case of B1, the binding [4] is reported as “binds”.

B2: SpDivIVA (native, in S. pneumoniae) (protein, UniProt Q8CWP9 1-262)
chain: MPITSLEIKDKTFGTRFRGFDPEEVDEFLDIVVRDYEDLVRANHDKNLRIKSLEERLSYFDEIKDSLSQSVLIAQDTAERVKQAAHERSNNIIHQAEQDAQRLLEEAKYKANEILRQATDNAKKVAVETEELKNKSRVFHQRLKSTIESQLAIVESSDWEDILRPTATYLQTSDEAFKEVVSEVLGEPIPAPIEEEPIDMTRQFSQAEMEELQARIEVADKELSEFEAQIKQEVETPTPVVSPQVEEEPLLIQLAQCMKNQK
In the case of B2, the binding [5] is reported as “no binding” and the binding [6] is reported as “binds”.

B3: SpGpsB (BACTH fusion) (protein, UniProt Q8DR57 1-109)
chain: MASIIFSAKDIFEQEFGREVRGYNKVEVDEFLDDVIKDYETYAALVKSLRQEIADLKEELTRKPKPSPVQAEPLEAAITSSMTNFDILKRLNRLEKEVFGKQILDNSDF
With B3 the binding [7] was “binds”, the binding [8] was “no binding” and the binding [9] was “binds”.

B4: BsYrrS (BACTH fusion) (protein, UniProt O32031 1-233)
chain: MSNNQSRYENRDKRRKANLVLNILIAIVSILIVVVAANLFINSPSSKDVSKDSETAQKQESPASGKTEKKSDEDIKDSKKDTSDSEKDSEKSSDSDSKKDDSSSKKDDSDSDSSSDSAGDGLKDAKVTEGGSSSDVEKTYENPDWKAVGTEQTGEHAATYDSSSQDWAEMLKAISYATGVSTDNMTVLWLGNNGSPQDAKGKILDKATGNKYQVTITWVDEKGWKPTKVEKLK
With B4 the binding [10] was “binds”.

Source: PMC6335420, “The cell cycle regulator GpsB functions as cytosolic adaptor for multiple cell wall enzymes” (Nature Communications, 2019)
